PubChem BioAssay AID504523 (Broad Institute, 2011)
The campaign covered roughly 340,000 compounds. About 490 (0.14%) were called active. The inconclusive results got no clear call from the source; some entries with a clear call stand among them for comparison. No stated cut-off is given here; in the data, active means inhibition above about 12%; inconclusive means no clear call, values can overlap the other calls; inactive means below about 7.3%.

Protein sequences, listed by entry. Tags and fused reporters are not part of them.
UniProt Q14145, whole entry, looked up: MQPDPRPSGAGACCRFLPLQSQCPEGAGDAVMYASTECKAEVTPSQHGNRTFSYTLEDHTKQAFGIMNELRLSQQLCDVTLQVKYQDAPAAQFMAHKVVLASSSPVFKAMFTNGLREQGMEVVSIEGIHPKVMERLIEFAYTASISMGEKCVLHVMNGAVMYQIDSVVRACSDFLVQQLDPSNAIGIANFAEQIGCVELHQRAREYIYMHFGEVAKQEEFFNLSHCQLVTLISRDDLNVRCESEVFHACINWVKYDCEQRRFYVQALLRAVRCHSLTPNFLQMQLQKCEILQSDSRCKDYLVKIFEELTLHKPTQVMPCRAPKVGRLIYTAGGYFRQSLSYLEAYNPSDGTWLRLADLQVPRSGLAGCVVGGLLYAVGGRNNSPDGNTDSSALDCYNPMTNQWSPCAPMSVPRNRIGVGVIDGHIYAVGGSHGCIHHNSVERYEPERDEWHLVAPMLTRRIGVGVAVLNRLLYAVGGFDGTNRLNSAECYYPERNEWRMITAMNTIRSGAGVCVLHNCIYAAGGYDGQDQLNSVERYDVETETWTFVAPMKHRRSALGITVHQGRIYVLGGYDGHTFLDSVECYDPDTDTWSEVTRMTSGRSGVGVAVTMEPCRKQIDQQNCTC

target: Kelch-like ECH-associated protein 1 (Homo sapiens) (UniProt Q14145); assay: Keap1-Nrf2 protein-protein interaction inhibitors, primary screen, biochemical, fluorescence polarization, single point (AID 504523); conditions: Keap1 Kelch-Nrf2 peptide fluorescence polarization, 1536-well; at 9.4 µM; active compounds read high;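 further: human Keap1 Kelch domain with fluorescein labeled Nrf2 9mer peptide probe; 0% = neutral control wells and 100% = peptide positive control; higher means more block of Keap1 binding to Nrf2 peptide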

Compound	inhibition
Cc1cccc(C(O)(C(=O)NNC(=O)CN2CCN(C)CC2)c2cccc(C)c2)c1	inconclusive: 10%
Cn1cc(/C=C2\C(=O)NC(=O)N(c3ccccc3)C2=O)c2ccccc21	active: 49.3%
C1CCC(NC2CCCCC2)CC1	inactive: -3.97%
COC(=O)Cn1cc(C=C2C(=O)NC(=O)NC2=O)c2ccccc21	inconclusive: 9.68%
Cc1c(C)c2ccc(OCC(=O)N3C[C@H]4C[C@@H](C3)c3cccc(=O)n3C4)cc2oc1=O	inconclusive: 9.55%
COc1cc(/C=C2\C(=O)NC(=O)N(c3ccccc3)C2=O)c([N+](=O)[O-])cc1OC	inconclusive: 8.22%
FC(F)(F)Oc1ccc(NC2=NCCCS2)cc1	inactive: -0.558%
CC1=C[C@@H]2c3cccc4[nH]cc(c34)C[C@H]2N(C)C1	active: 14.4%
Cc1cc(N)n(C2CCN(C)CC2)n1	inconclusive: 7.08%
CN1CCN(c2ccc([N+](=O)[O-])c3no[n+]([O-])c23)CC1	active: 55.3%
O=c1[nH]c(O)c(C=Nc2ccccc2Oc2ccccc2)c(=O)[nH]1	inconclusive: 11.3%
CCOC(=O)C1=C(C)c2ccccc2OC1(C(=O)OCC)c1ccccc1 (stereo unspecified)	inconclusive: 10.1%
O=c1[nH]c(=O)n(-c2ccc(F)cc2)c(O)c1C=Nc1ccccc1N1CCCC1	inconclusive: 8.12%
COP(=O)(OC)C1(Nc2ccc(C)cc2)CCCCC1	inconclusive: 8.74%
CCN(CC)C(=O)c1ccc(NC(=O)c2cccc(S(=O)(=O)N3CCN(C)CC3)c2)cc1	inconclusive: 6.59%
CCOC(=O)C1=C(C)N(C)C2(C)CC1c1ccccc1O2 (stereo unspecified)	inconclusive: 9.86%
CCn1cc(C=C2C(=O)NC(=O)NC2=O)c2ccccc21	active: 21.1%
O=C(CCN1CCOCC1)NCC(=O)Nc1ccc(Br)cc1C(=O)c1ccccc1	inactive: -6.04%
Cc1cccc(N2C(=O)NC(=O)/C(=C/c3cc4c(cc3[N+](=O)[O-])OCO4)C2=O)c1	inconclusive: 11.4%
CCN1C(=O)NC(=O)/C(=C\c2cn(CC(=O)N3CCCCC3C)c3ccccc23)C1=O (stereo unspecified)	inconclusive: 1.51%
CN1/C(=C\C=C2C(=O)NC(=O)NC2=O)C(C)(C)c2ccccc21	active: 32.4%
CC(C)C[C@H]1C(=O)N2CCCC2[C@]2(O)O[C@](NC(=O)[C@@H]3C=C4c5cccc6[nH]cc(c56)CC4N(C)C3)(C(C)C)C(=O)N12 (stereo partly specified)	active: 15.7%
Cc1ccccc1N1C(=O)NC(=O)/C(=C/c2ccc(N3CCOCC3)o2)C1=O	inactive: -159%
COc1ccc(-n2c(CNCCc3ccc(C)cc3)nc3ccccc3c2=O)cc1	active: 35.9%
O=c1[nH]c(=O)n(-c2ccccc2)c(O)c1/C=C/C=Nc1ccccc1	inactive: -108%
Cc1cc(C)c(C(=O)N2CCC3(CC2)OCCO3)c(C)c1	inactive: -2.27%

Reformatted: 2 of the compounds above.
Compound,inhibition
Cn1cc(/C=C2\C(=O)NC(=O)N(c3ccccc3)C2=O)c2ccccc21,active: 49.3%
C1CCC(NC2CCCCC2)CC1,inactive: -3.97%
